No constants are given. Whether binding was seen depends on the method and setting. In cells and extracts the contact can be indirect. Some binding calls cover weakened binding; strength is not graded here.
Biological target: p53 (human (endogenous in HCT116 and Hela)), P04637
Experiment: co-IP; endogenous p53 and endogenous MDM2 or USP11 in HCT116 cells; also compared in control and RRM1 knockdown cells after radiation treatment
Details: remark: other sources report otherwise

binding: binds
B1: Ubiquitin-specific protease USP11, P51784 1-963 (enzyme)
chain: MAVAPRLFGGLCFRFRDQNPEVAVEGRLPISHSCVGCRRERTAMATVAANPAAAAAAVAAAAAVTEDREPQHEELPGLDSQWRQIENGESGRERPLRAGESWFLVEKHWYKQWEAYVQGGDQDSSTFPGCINNATLFQDEINWRLKEGLVEGEDYVLLPAAAWHYLVSWYGLEHGQPPIERKVIELPNIQKVEVYPVELLLVRHNDLGKSHTVQFSHTDSIGLVLRTARERFLVEPQEDTRLWAKNSEGSLDRLYDTHITVLDAALETGQLIIMETRKKDGTWPSAQLHVMNNNMSEEDEDFKGQPGICGLTNLGNTCFMNSALQCLSNVPQLTEYFLNNCYLEELNFRNPLGMKGEIAEAYADLVKQAWSGHHRSIVPHVFKNKVGHFASQFLGYQQHDSQELLSFLLDGLHEDLNRVKKKEYVELCDAAGRPDQEVAQEAWQNHKRRNDSVIVDTFHGLFKSTLVCPDCGNVSVTFDPFCYLSVPLPISHKRVLEVFFIPMDPRRKPEQHRLVVPKKGKISDLCVALSKHTGISPERMMVADVFSHRFYKLYQLEEPLSSILDRDDIFVYEVSGRIEAIEGSREDIVVPVYLRERTPARDYNNSYYGLMLFGHPLLVSVPRDRFTWEGLYNVLMYRLSRYVTKPNSDDEDDGDEKEDDEEDKDDVPGPSTGGSLRDPEPEQAGPSSGVTNRCPFLLDNCLGTSQWPPRRRRKQLFTLQTVNSNGTSDRTTSPEEVHAQPYIAIDWEPEMKKRYYDEVEAEGYVKHDCVGYVMKKAPVRLQECIELFTTVETLEKENPWYCPSCKQHQLATKKLDLWMLPEILIIHLKRFSYTKFSREKLDTLVEFPIRDLDFSEFVIQPQNESNPELYKYDLIAVSNHYGGMRDGHYTTFACNKDSGQWHYFDDNSVSPVNENQIESKAAYVLFYQRQDVARRLLSPAGSSGAPASPACSSPPSSEFMDVN
